# Results taken from PubChem BioAssay AID330 (DTP/NCI, 2004).
# The list does not hold the whole screen: it is rich in T/C values a quarter to a half above the control, in often repeated tests (any T/C) and in doses without a T/C. Other doses and runs of a compound stand elsewhere. T/C gives the treated animals as a percentage of the vehicle group. Some doses have a count of surviving animals in place of a T/C: the source holds a T/C of zero for them, seemingly a mark for toxic or unscored doses. Some survivor counts are full or nearly so, which does not show that the dose was tolerated: the source hardly ever lists a survival T/C far under the control, and the zero likely stands for such cases as well. Counts of survivors are from the toxicity check (mostly the fifth day) where no day follows; animals may have died later. Schedule codes are those of the source, taken here to give the interval after Q, in days (D) or hours (H), and the number of doses after X. For survival time, this PubChem deposit counts one and a half times the control or more as active, and values a quarter to a half above the control carry no call in these data; other NCI protocols may use other cut-offs. Some doses were run more than once; the results are listed from low to high. Some T/C values carry the count of animals alive at the toxicity check (mostly the fifth day); without a count, all were alive then.
# Test system: P388 leukemia ip, CD2F1 mice, survival T/C
# Assay: NCI In Vivo Anticancer Drug Screen. Data for tumor model P388 Leukemia (intraperitoneal) in CD2F1 (CDF1) mice
# Details: T/C endpoint: median survival time, higher T/C = longer survival
compound,measurement,setting,value
COc1ccc(OC)c(Cc2cnc3nc(N)nc(N)c3c2C)c1,T/C,"dose: 20.0 mg/kg/injection, schedule: Q01DX005 (ip), vehicle: dextrose",147 % of control [5 of 6 alive]
same,T/C,"dose: 20.0 mg/kg/injection, schedule: Q01DX005 (ip), vehicle: water",125 % of control
same,T/C,"dose: 40.0 mg/kg/injection, schedule: Q01DX005 (ip), vehicle: water",125 % of control
same,T/C,"dose: 50.0 mg/kg/injection, schedule: Q04DX003 (ip), vehicle: dextrose",142 % of control
same,survivor count,"dose: 80.0 mg/kg/injection, schedule: Q01DX005 (ip), vehicle: dextrose",6 of 6
same,survivor count,"dose: 80.0 mg/kg/injection, schedule: Q01DX005 (ip), vehicle: water",4 of 6
same,survivor count,"dose: 160.0 mg/kg/injection, schedule: Q01DX005 (ip), vehicle: dextrose",1 of 6
same,survivor count,"dose: 160.0 mg/kg/injection, schedule: Q01DX005 (ip), vehicle: water",2 of 6
same,survivor count,"dose: 200.0 mg/kg/injection, schedule: Q04DX003 (ip), vehicle: dextrose",6 of 6
same,survivor count,"dose: 400.0 mg/kg/injection, schedule: Q04DX003 (ip), vehicle: dextrose",0 of 6
C=CCOCN1c2cc(OC)c([C@@]3(C(=O)OC)C[C@@H]4CN(CCc5c3[nH]c3ccccc53)C[C@](O)(CC)C4)cc2[C@@]23CCN4CC=C[C@@](CC)([C@@H](OC(C)=O)[C@](O)(C(=O)OC)[C@H]12)[C@H]43,T/C,"dose: 8.0 mg/kg/injection, schedule: Q01DX001 (ip), vehicle: other",133 % of control
same,T/C,"dose: 8.0 mg/kg/injection, schedule: Q01DX001 (ip), vehicle: water",127 % of control
same,T/C,"dose: 16.0 mg/kg/injection, schedule: Q01DX001 (ip), vehicle: other",148 % of control
same,T/C,"dose: 16.0 mg/kg/injection, schedule: Q01DX001 (ip), vehicle: water",134 % of control
same,T/C,"dose: 32.0 mg/kg/injection, schedule: Q01DX001 (ip), vehicle: water",139 % of control
same,survivor count,"dose: 64.0 mg/kg/injection, schedule: Q01DX001 (ip), vehicle: other",2 of 6
C=C1C(=O)OC2C1C(OC(=O)/C(=C/C)CO)CC(C)(O)C1CC=C(C)C21 (configuration not stated),survivor count,"dose: 95.0 mg/kg/injection, schedule: Q01DX005 (ip), vehicle: Klucel (hydroxypropylcellulose) (HPC)",0 of 5
same,survivor count,"dose: 190.0 mg/kg/injection, schedule: Q01DX005 (ip), vehicle: Klucel (hydroxypropylcellulose) (HPC)",0 of 5
O=NNc1ncc(Sc2ccccc2)nc1Sc1ccccc1,survivor count,"dose: 3.12 mg/kg/injection, schedule: Q01DX009 (ip), vehicle: water",6 of 6
same,T/C,"dose: 50.0 mg/kg/injection, schedule: Q01DX009 (ip), vehicle: water",125 and 140 % of control
O=C(O)C(=Cc1cccc2ccccc12)C(=O)O,survivor count,"dose: 200.0 mg/kg/injection, schedule: Q01DX005 (ip), vehicle: Klucel (hydroxypropylcellulose) (HPC)",0 of 6
O=C(Nc1ccc(C(=O)Nc2ccc(C3=NCCCN3)cc2)cc1)Nc1ccc(C2=NCCCN2)cc1,T/C,"dose: 12.5 mg/kg/injection, schedule: Q04DX003 (ip), vehicle: saline with Tween-80",141 % of control
same,survivor count,"dose: 50.0 mg/kg/injection, schedule: Q01DX009 (ip), vehicle: saline with Tween-80",4 of 6
same,survivor count,"dose: 200.0 mg/kg/injection, schedule: Q04DX003 (ip), vehicle: saline",1 of 6
same,survivor count,"dose: 400.0 mg/kg/injection, schedule: Q04DX003 (ip), vehicle: saline",0 of 6
C=C(CC(O)(C(F)(F)F)C(F)(F)F)CC(O)(C(F)(F)F)C(F)(F)F,survivor count,"dose: 50.0 mg/kg/injection, schedule: Q01DX001 (ip), vehicle: saline with Tween-80",0 of 5
same,survivor count,"dose: 100.0 mg/kg/injection, schedule: Q01DX001 (ip), vehicle: saline with Tween-80",0 of 6
same,survivor count,"dose: 200.0 mg/kg/injection, schedule: Q01DX001 (ip), vehicle: saline with Tween-80",0 of 6
same,survivor count,"dose: 400.0 mg/kg/injection, schedule: Q01DX001 (ip), vehicle: saline with Tween-80",0 of 6
CSC(=S)N/N=C\C(C)=N/N=C(N)N,survivor count,"dose: 50.0 mg/kg/injection, schedule: Q01DX009 (ip), vehicle: saline",1 of 6
same,survivor count,"dose: 100.0 mg/kg/injection, schedule: Q01DX009 (ip), vehicle: saline",0 of 6
same,survivor count,"dose: 200.0 mg/kg/injection, schedule: Q01DX009 (ip), vehicle: saline",0 of 6
